Test results published in patent US9493420B2, “Quinoline derivatives and uses thereof” (Portland State University, priority 2005, dated 2016).

System: mitogen-induced murine spleen lymphocytes
Type: cell-based
Settings: for Therapeutic Index D6: ratio of cytotoxicity/IC50 for P. falciparum D6; for Therapeutic Index Dd2: ratio of cytotoxicity/IC50 for P. falciparum Dd2
Protocol: Mouse spleen lymphocytes were isolated from C57B1/6J mice by teasing tissues on a metallic sieve screen. […] Two hundred (200) μl isolated cells were then seeded in separate wells of a 96-well flat-bottom tissue culture plate at a density of 2×10^5 cells per well. […] After 72 hours incubation in a humidified atmosphere at 37° C. and 5% CO2, a solution of resazurin PBS was added to a final concentration 10 μM, and the plates were returned to the incubator for another 24 hours. Resazurin is a substrate which changes color in response to metabolic activity (such as, living cells). […] LC50 values were determined from plots of florescence versus drug concentration using non-linear regression by Prism software.

Fc1ccc(C(c2ccc(F)cc2)N2CCN(CCCNc3ccnc4cc(Cl)ccc34)CC2)cc1 [RCQ_37F2]
Therapeutic Index D6: 273
Therapeutic Index Dd2: 215

Clc1ccc2c(NCCCN3CCCN(C(c4ccccc4)c4ccccc4)CC3)ccnc2c1 [RCQ_73]
Therapeutic Index D6: 145
Therapeutic Index Dd2: 171

Clc1ccc2c(NCCCN3CCCN(C4c5ccccc5-c5ccccc54)CC3)ccnc2c1 [RCQ_76]
Therapeutic Index D6: 118
Therapeutic Index Dd2: 163

Clc1ccc2c(NCCCNCCCN(Cc3ccccc3)Cc3ccccc3)ccnc2c1 [RCQ_22]
Therapeutic Index D6: 16
Therapeutic Index Dd2: 9

Clc1ccc2c(NCCN3CCCN(C4c5ccccc5-c5ccccc54)CC3)ccnc2c1 [RCQ_72]
Therapeutic Index D6: 272
Therapeutic Index Dd2: 260

Clc1ccc2c(NCCN3CCCN(C(c4ccccc4)c4ccccc4)CC3)ccnc2c1 [RCQ_36]
Therapeutic Index D6: 453
Therapeutic Index Dd2: 54

CN(CCCN1c2ccccc2CCc2ccccc21)CCNc1ccnc2cc(Cl)ccc12 [RCQ_33]
Therapeutic Index D6: 173
Therapeutic Index Dd2: 151

Clc1ccc(C(c2ccccc2)N2CCCN(CCCNc3ccnc4cc(Cl)ccc34)CC2)cc1 (stereo not drawn) [RCQ_74]
Therapeutic Index D6: 60
Therapeutic Index Dd2: 92

Clc1ccc2c(NCCCN3CCC(=C4c5ccccc5C=Cc5ccccc54)CC3)ccnc2c1 [RCQ_42]
Therapeutic Index D6: 523
Therapeutic Index Dd2: 611

CCN1CCN(c2ccnc3cc(Cl)ccc23)CC1 [Q_38a]
Therapeutic Index D6: 153
Therapeutic Index Dd2: 108

CN(CCCNc1ccnc2cc(Cl)ccc12)CCCN1c2ccccc2CCc2ccccc21 [RCQ_02, N′-(7-Chloro-quinolin-4-yl)-N-[3-(10,11-dihydro-dibenzo[b,f]azepin-5-yl)-propyl]-N-methyl-propane-1,3-diamine]
Therapeutic Index D6: 240
Therapeutic Index Dd2: 132

Clc1ccc2c(NCCCN3CCN(C(c4ccccc4)c4ccccc4)CC3)ccnc2c1 [RCQ_34]
Therapeutic Index D6: 458
Therapeutic Index Dd2: 297

Clc1ccc2c(NCCN3CCN(C(c4ccccc4)c4ccccc4)CC3)ccnc2c1 [RCQ_31]
Therapeutic Index D6: 1900
Therapeutic Index Dd2: 528

Clc1ccc(C(c2ccccc2)N2CCN(CCNc3ccnc4cc(Cl)ccc34)CC2)cc1 (stereo not drawn) [RCQ_32]
Therapeutic Index D6: 538
Therapeutic Index Dd2: 412

Clc1ccc(C(c2ccccc2)N2CCN(CCCNc3ccnc4cc(Cl)ccc34)CC2)cc1 (stereo not drawn) [RCQ_35]
Therapeutic Index D6: 200
Therapeutic Index Dd2: 133
